Data as given in PubChem BioAssay AID1224830 (NIAID, 2016).

- Aim: 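Host factors that control LPS-induced TNF expression in human macrophages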 (primary screen)
- Cell system: human THP-1 monocytic leukaemia cells, TNF dual-luciferase reporter clone, PMA-differentiated to macrophage-like cells
- Reagents: siRNA pool against human genes, 50 nM
- Time to read-out: LPS for 4 h, given about 3 days after siRNA transfection
- Treatment: bacterial LPS (TLR4 ligand), 10 ng/ml
- Measured: 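Ratio of firefly to renilla light, scaled to the plate median and expressed as a robust z-score per replicate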
- Direction: TNF reporter robust z-score: higher = stronger TNF reporter response to LPS
- Hit rule: 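Each well counts as active if its z-score is over 2.8 or under -1.5; controls are left without a call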
Shown is one part, drawn at random, of about 18,000 deposited reagents. Over the whole deposit, about 2,900 (16%) were called active. 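Calls are made per well; low scores hint the gene aids the LPS response, high scores that it dampens it.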 A number with no mark means an inactive call. Repeated entries: four replicate wells of each siRNA pool. Reagent sequences are not shown.

no.	gene	TNF reporter robust z-score
1	ZUP1 (zinc finger containing ubiquitin peptidase 1)	0.23
2	ZUP1 (zinc finger containing ubiquitin peptidase 1)	0.26
3	ZUP1 (zinc finger containing ubiquitin peptidase 1)	-0.18
4	ZUP1 (zinc finger containing ubiquitin peptidase 1)	0.66
5	PARP14 (poly(ADP-ribose) polymerase family member 14)	-0.75
6	PARP14 (poly(ADP-ribose) polymerase family member 14)	-0.36
7	PARP14 (poly(ADP-ribose) polymerase family member 14)	-1.09
8	PARP14 (poly(ADP-ribose) polymerase family member 14)	-1.32
9	GPR37L1 (G protein-coupled receptor 37 like 1)	0.15
10	GPR37L1 (G protein-coupled receptor 37 like 1)	-0.06
11	GPR37L1 (G protein-coupled receptor 37 like 1)	-0.42
12	GPR37L1 (G protein-coupled receptor 37 like 1)	-0.18
13	CNTNAP2 (contactin associated protein 2)	-0.76
14	CNTNAP2 (contactin associated protein 2)	-1.64 (active)
15	CNTNAP2 (contactin associated protein 2)	-1.03
16	CNTNAP2 (contactin associated protein 2)	-0.92
17	ERVFRD-1 (endogenous retrovirus group FRD member 1, envelope)	-0.08
18	ERVFRD-1 (endogenous retrovirus group FRD member 1, envelope)	-0.3
19	ERVFRD-1 (endogenous retrovirus group FRD member 1, envelope)	0.08
20	ERVFRD-1 (endogenous retrovirus group FRD member 1, envelope)	-0.68
21	OR5B17 (olfactory receptor family 5 subfamily B member 17)	-0.77
22	OR5B17 (olfactory receptor family 5 subfamily B member 17)	-0.88
23	OR5B17 (olfactory receptor family 5 subfamily B member 17)	-0.97
24	OR5B17 (olfactory receptor family 5 subfamily B member 17)	-1.04
25	CIMAP1D (CIMAP1 family member D)	1.22
26	CIMAP1D (CIMAP1 family member D)	0.9
27	CIMAP1D (CIMAP1 family member D)	0.22
28	CIMAP1D (CIMAP1 family member D)	1.35
29	NEIL2 (nei like DNA glycosylase 2)	-0.67
30	NEIL2 (nei like DNA glycosylase 2)	-1.96 (active)
31	NEIL2 (nei like DNA glycosylase 2)	-0.15
32	NEIL2 (nei like DNA glycosylase 2)	0.24
33	BARX2 (BARX homeobox 2)	-0.48
34	BARX2 (BARX homeobox 2)	-0.7
35	BARX2 (BARX homeobox 2)	0.41
36	BARX2 (BARX homeobox 2)	0.71
37	WWC1 (WW and C2 domain containing 1)	0.04
38	WWC1 (WW and C2 domain containing 1)	0.23
39	WWC1 (WW and C2 domain containing 1)	-0.15
40	WWC1 (WW and C2 domain containing 1)	0.38
41	SYNC (syncoilin, intermediate filament protein)	-1.21
42	SYNC (syncoilin, intermediate filament protein)	-1.2
43	SYNC (syncoilin, intermediate filament protein)	-0.67
44	SYNC (syncoilin, intermediate filament protein)	-0.68
45	SMR3A (submaxillary gland androgen regulated protein 3A)	-0.73
46	SMR3A (submaxillary gland androgen regulated protein 3A)	0.2
47	SMR3A (submaxillary gland androgen regulated protein 3A)	0.72
48	SMR3A (submaxillary gland androgen regulated protein 3A)	1.17
